# These are yes or no findings as the source states them, for the method shown. Binding seen in cells or lysates may run through a third protein. Here binding means that the protein was enriched with, or labelled near, the bait; the list need not be complete.
# B1: chicken peroxiredoxin 1 (chPRDX1) (protein, UniProt P0CB50 1-199)
# chain: MSSGKAFIGKPAPDFTATAVMPDGQFKDIKLSDYRGKYVVFFFYPLDFTFVCPTEIIAYSDRADEFKKINCEIIGASVDSHFCHLAWINTPKKQGGLGTMKIPLVSDTKRVIAKDYGVLKEDEGIAYRGLFIIDEKGILRQITINDLPVGRSVDETLRLVQAFQFTDKHGEVCPAGWKPGSDTIKPDVQKSKEYFSKQK
# Molecular target: chicken interferon-related antiviral protein (chIRAP) (chicken)
# Experiment: affinity purification with mass spectrometry; Co-IP to retrieve chIRAP interacting proteins, analysed by label-free mass spectrometry
binder,measurement,value
B1,binding,binds

# Reference: paper PMC12431653
